Experimental data: PubChem BioAssay AID1224830 (NIAID, 2016)
In all, the deposit lists about 18,000 reagents; this is an unselected part. Over the whole deposit, about 2,900 (16%) are marked active. 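Calls are made per well; low scores hint the gene aids the LPS response, high scores that it dampens it.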 Unmarked entries are inactive. Repeated entries: four replicate wells of each siRNA pool.

Test: 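Genes whose knock-down alters the TNF-alpha reporter response to LPS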 (primary screen)
System: human THP-1 monocytic leukaemia cells, TNF dual-luciferase reporter clone, PMA-differentiated to macrophage-like cells
Reagents: siRNA pool against human genes, 50 nM
Duration: LPS for 4 h, given about 3 days after siRNA transfection
Treatment: bacterial LPS (TLR4 ligand), 10 ng/ml
Measured: 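Ratio of firefly to renilla light, scaled to the plate median and expressed as a robust z-score per replicate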
Scale: TNF reporter robust z-score: higher = stronger TNF reporter response to LPS
Rule for the call: 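a well is active when its z-score exceeds 2.8 or falls below -1.5; control wells carry no call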

The opening 6 records as a preview:
| target | TNF reporter robust z-score |
| --- | --- |
| GPD1 | 0.23 |
| GPD1 | 0.25 |
| GPD1 | 0.34 |
| GPD1 | 0.38 |
| ANKRD17 | 0 |
| ANKRD17 | 0.87 |

The list itself, repeating the preview:
| target | TNF reporter robust z-score |
| --- | --- |
| GPD1 | 0.23 |
| GPD1 | 0.25 |
| GPD1 | 0.34 |
| GPD1 | 0.38 |
| ANKRD17 | 0 |
| ANKRD17 | 0.87 |
| ANKRD17 | 1.36 |
| ANKRD17 | 1.57 |
| UBAC2 | -0.14 |
| UBAC2 | 1.94 |
| UBAC2 | 0.08 |
| UBAC2 | 1.15 |
| VSX2 | 0.38 |
| VSX2 | -0.33 |
| VSX2 | 0.1 |
| VSX2 | -0.17 |
| PPID | 1.44 |
| PPID | 0.69 |
| PPID | 1.98 |
| PPID | 1.77 |
| IFITM5 | -0.67 |
| IFITM5 | 1.72 |
| IFITM5 | 1.43 |
| IFITM5 | -0.06 |
| GATD1 | -0.35 |
| GATD1 | -0.15 |
| GATD1 | 0.12 |
| GATD1 | -0.25 |
| DLGAP2 | -0.83 |
| DLGAP2 | -0.51 |
| DLGAP2 | -0.3 |
| DLGAP2 | 0.32 |
| REL | 1.23 |
| REL | 3.2 (active) |
| REL | -0.3 |
| REL | 0.52 |
| SYK | -0.8 |
| SYK | -0.58 |
| SYK | -0.79 |
| SYK | 0.1 |
| ZP4 | -0.72 |
| ZP4 | -0.4 |
| ZP4 | -0.26 |
| MRPL10 | -0.5 |
| MRPL10 | -0.32 |
| MRPL10 | 0.41 |
| MRPL10 | 0.33 |
| RNF220 | -0.99 |
| RNF220 | -1.1 |
| RNF220 | -2.41 (active) |
| RNF220 | 1.15 |
| UBL5 | -2.33 (active) |
| UBL5 | -2.28 (active) |
| UBL5 | -2.4 (active) |
| UBL5 | -2.3 (active) |
| ACADS | 1.64 |
| ACADS | 1.61 |
| ACADS | 1.45 |
| ACADS | 2 |
| BCCIP | -1.29 |
| BCCIP | 0.18 |
| BCCIP | -0.45 |
| BCCIP | -0.7 |
| ADGRG7 | 0.16 |
| ADGRG7 | -0.06 |
| ADGRG7 | -0.22 |
| ADGRG7 | 0.06 |
| PIGU | 1.43 |
| PIGU | 1.26 |
| PIGU | 1.38 |
| PIGU | 0.7 |
| SCN3B | 2 |
| SCN3B | -0.16 |
| SCN3B | 0.56 |
| ITPRID2 | -0.15 |
| ITPRID2 | -0.05 |
| ITPRID2 | -0.06 |
| ITPRID2 | 0.05 |
| RTN1 | 1.67 |
| RTN1 | 0.44 |
| RTN1 | -0.86 |
| RTN1 | -0.43 |
| FER | -0.47 |
| FER | -0.54 |
| FER | 0.37 |
| FER | -0.19 |
| NUDT12 | -0.65 |
| NUDT12 | -0.46 |
| NUDT12 | -1.41 |
| NUDT12 | -0.39 |
| MROH5 | 2.12 |
| MROH5 | 3.25 (active) |
| MROH5 | -0.86 |
| MROH5 | 0.26 |
| SHISA2 | 1.45 |
| SHISA2 | 1.94 |
| SHISA2 | 1.4 |
| SHISA2 | -0.33 |
| CBX6 | 3.81 (active) |
| CBX6 | 2.3 |
| CBX6 | 1.66 |
| CBX6 | 2.6 |
| CERS1 | -0.66 |
| CERS1 | 0.24 |
| CERS1 | 1.39 |
| CERS1 | 0.1 |
| HDHD2 | -1.25 |
| HDHD2 | -0.96 |
| HDHD2 | -1.34 |
| HDHD2 | -0.97 |
